In article PMC11706604:
No constants are given. Whether binding was seen depends on the method and setting. Some results given as binding are weak or reduced against the parent protein; the word gives no strength.

Protein sequences, listed by entry. Tags and fused reporters are not part of them.
UniProt O64645: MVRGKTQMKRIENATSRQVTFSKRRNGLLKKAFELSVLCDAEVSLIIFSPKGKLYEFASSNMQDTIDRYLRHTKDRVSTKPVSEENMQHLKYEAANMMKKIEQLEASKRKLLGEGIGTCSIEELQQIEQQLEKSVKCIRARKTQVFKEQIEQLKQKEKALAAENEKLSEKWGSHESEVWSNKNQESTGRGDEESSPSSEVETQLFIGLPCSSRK
UniProt P29386: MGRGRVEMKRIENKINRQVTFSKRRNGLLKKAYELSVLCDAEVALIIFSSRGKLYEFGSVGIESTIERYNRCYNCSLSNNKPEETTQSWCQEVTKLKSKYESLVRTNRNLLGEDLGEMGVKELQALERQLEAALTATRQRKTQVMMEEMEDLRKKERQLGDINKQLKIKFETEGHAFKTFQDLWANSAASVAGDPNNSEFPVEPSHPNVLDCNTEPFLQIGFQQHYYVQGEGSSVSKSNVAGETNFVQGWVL
UniProt Q9FVC1: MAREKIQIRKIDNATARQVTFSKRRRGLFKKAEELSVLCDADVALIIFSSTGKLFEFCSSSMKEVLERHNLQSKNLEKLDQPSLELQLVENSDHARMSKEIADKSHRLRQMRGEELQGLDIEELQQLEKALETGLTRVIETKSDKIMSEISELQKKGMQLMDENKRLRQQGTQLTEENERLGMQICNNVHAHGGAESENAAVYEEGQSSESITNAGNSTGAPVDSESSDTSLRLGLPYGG

Tests used:
[1] = target: suppressor of overexpression of CO 1 (SOC1), MADS-box transcription factor (A. thaliana) (UniProt O64645); assay: two-hybrid; GAL4-activation (AD) and GAL4-DNA binding (BD) domains fused to the test proteins; growth on -L-W-H-A or -L-W-H + 10 mM 3-AT, scored after 5 days at 28 °C; Matchmaker Gold and DUALhybrid systems named
[2] = target: AGL6, MADS-box transcription factor (A. thaliana) (UniProt P29386); assay: as above

short vegetative phase (SVP), MADS-box transcription factor (from UniProt Q9FVC1 1-240)
binding [1]: binds | binding [2]: binds
